Values quoted from earlier work in patent US12377072B2, “Modulators of GTPases and their use” (priority 2010, dated 2025).

Conditions: 10 mg/kg, within 3 h; cited from earlier work

COc1ccc2cc([C@H](C)C(=O)O)ccc2c1 [S-naproxen]
plasma concentration: ~94 µM
